Strings that start with PEPTIDE1 are HELM notation: dots part the residues, brackets hold end groups and non-standard residues.
Assay: general procedure: Fmoc solid-phase peptide synthesis; Rink amide 0.52 mmol/g; DIC/HOBt

With “PEPTIDE1{[ac].I.W.L.T.A.L.K.F.L.G.K.N.L.G.K.L.A.K.Q.Q.C.A.K.L.[am]}$$$$V2.0” the step yield (purification step) was “about 65%”, the crude mass (whole synthesis) was 100 mg and the crude yield (whole synthesis, scale of the general procedure 160 mg of Rink amide resin) was “about 50%”.

— publication PMC9611540 (Frontiers in Molecular Biosciences, 2022)
